According to paper PMC9706435:
These are yes or no findings as the source states them, for the method shown. In cells and extracts the contact can be indirect. Some entries that bind do so weakly or less than the wild type. For some assays here: Sequences can lack the tags named with a protein.

Amino acid sequences for entries named in this document (tags omitted).
UniProt Q9SR02: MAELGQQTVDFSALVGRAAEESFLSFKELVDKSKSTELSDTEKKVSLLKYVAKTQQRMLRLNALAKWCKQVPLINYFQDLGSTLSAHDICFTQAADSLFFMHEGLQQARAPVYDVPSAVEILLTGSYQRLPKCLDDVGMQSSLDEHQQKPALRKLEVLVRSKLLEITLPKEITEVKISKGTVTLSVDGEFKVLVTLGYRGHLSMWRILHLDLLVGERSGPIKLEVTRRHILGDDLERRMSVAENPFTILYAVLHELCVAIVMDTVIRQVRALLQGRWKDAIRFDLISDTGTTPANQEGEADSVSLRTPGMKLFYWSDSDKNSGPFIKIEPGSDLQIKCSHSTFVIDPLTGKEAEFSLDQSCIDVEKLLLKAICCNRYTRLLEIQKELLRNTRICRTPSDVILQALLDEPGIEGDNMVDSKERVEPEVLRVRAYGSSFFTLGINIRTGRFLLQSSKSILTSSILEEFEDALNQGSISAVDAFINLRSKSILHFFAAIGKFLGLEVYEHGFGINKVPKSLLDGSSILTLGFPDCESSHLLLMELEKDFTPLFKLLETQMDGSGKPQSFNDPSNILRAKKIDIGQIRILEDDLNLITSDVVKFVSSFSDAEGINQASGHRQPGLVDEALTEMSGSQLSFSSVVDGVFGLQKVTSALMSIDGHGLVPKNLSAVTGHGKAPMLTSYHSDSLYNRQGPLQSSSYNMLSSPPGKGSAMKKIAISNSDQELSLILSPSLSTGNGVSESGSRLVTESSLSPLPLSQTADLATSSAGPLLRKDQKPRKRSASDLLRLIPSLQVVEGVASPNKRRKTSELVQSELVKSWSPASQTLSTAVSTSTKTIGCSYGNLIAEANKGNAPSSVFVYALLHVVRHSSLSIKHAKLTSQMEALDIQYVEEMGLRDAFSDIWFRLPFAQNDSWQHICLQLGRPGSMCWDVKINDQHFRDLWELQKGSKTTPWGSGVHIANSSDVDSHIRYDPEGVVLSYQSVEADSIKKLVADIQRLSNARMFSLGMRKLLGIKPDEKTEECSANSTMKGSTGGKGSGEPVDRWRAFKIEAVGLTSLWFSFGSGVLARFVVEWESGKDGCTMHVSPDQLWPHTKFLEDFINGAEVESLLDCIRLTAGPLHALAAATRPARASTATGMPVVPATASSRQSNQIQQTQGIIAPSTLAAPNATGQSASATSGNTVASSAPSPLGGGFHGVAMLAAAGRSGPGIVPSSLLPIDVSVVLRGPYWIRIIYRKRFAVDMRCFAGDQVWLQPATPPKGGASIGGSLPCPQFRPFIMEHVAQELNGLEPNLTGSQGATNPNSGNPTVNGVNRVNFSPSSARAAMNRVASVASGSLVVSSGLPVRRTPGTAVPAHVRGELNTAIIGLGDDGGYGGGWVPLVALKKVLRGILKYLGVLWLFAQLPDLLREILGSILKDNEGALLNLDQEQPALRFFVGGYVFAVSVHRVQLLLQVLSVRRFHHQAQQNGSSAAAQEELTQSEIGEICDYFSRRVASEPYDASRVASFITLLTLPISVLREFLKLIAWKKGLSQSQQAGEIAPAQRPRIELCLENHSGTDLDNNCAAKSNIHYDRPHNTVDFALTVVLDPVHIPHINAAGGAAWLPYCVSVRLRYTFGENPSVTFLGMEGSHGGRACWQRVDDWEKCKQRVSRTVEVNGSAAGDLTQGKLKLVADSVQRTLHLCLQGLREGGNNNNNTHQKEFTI

What was measured:
[1] = molecular target: T1, GST-PIF4 (PHYTOCHROME-… FACTOR 4) (Arabidopsis thaliana) (UniProt Q8W2F3); assay: pull-down; GST-PIF4 or GST-HMR bait immobilised on glutathione Sepharose 4B beads, incubated with in vitro translated HA-MED14 at 4°C for 2 h; washed four times with E buffer (50 mM Tris-HCl pH 7.5, 100 mM NaCl, 1 mM EDTA, 1 mM EGTA, 1% DMSO, 2 mM DTT, 0.1% Nonidet P-40); anti-HA immunoblot; only the target purified
T1 sequence: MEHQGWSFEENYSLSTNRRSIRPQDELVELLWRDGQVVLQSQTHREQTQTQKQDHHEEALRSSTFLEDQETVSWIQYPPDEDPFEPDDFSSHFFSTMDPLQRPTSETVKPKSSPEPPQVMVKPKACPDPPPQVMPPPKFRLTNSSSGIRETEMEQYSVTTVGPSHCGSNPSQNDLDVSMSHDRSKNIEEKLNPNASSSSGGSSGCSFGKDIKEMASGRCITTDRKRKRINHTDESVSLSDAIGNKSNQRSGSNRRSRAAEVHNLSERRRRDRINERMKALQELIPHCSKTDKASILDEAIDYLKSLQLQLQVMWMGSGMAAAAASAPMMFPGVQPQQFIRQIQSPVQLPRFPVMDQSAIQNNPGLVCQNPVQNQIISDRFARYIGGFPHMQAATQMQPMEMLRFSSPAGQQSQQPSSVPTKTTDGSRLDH

[2] = molecular target: T2, PIF4-NmVen210 (Arabidopsis thaliana) (UniProt Q8W2F3); assay: split reporter; BiFC with pDOE-01 (NmVenus210 / cVenus210) co-expressed with CFP in N. benthamiana by agroinfiltration (OD 0.1); confocal imaging 40-70 h after infiltration
T2 sequence: T1 sequence

| binding [1] | binding [2] | Substance |
| --- | --- | --- |
| binds |  | HA-MED14 (from UniProt Q9SR02 1-1703) |
|  | binds | MED14-cVen210 (from UniProt Q9SR02 1-1703) |
